Laboratory results reported in PubChem BioAssay AID2551 (National Center for Advancing Translational Sciences (NCATS), 2010).
Out of some 310,000 compounds screened, about 17,000 (5.5%) were called active. The inconclusive results got no clear call from the source; some entries with a clear call stand among them for comparison. Calls follow the shape of the dose curve; as a rule, active = well fitted inhibition curve with a large enough effect; inconclusive = small, poorly fitted or top-dose-only effect, or effect the other way; inactive = no such curve, though single readings can be large or run the other way. Where the call is inconclusive, the potency comes from a doubtful curve fit.
% is scaled to controls: 0 for no effect and ±100 for the full control effect; potency is read from the fitted curve at half-maximal effect.
Also: nearly all actives have a fitted effect of over 60% in size.

Amino acid sequences for entries named in this document (tags omitted). A change or cut given only in a name is not applied to a line headed by its entry.
UniProt P51450: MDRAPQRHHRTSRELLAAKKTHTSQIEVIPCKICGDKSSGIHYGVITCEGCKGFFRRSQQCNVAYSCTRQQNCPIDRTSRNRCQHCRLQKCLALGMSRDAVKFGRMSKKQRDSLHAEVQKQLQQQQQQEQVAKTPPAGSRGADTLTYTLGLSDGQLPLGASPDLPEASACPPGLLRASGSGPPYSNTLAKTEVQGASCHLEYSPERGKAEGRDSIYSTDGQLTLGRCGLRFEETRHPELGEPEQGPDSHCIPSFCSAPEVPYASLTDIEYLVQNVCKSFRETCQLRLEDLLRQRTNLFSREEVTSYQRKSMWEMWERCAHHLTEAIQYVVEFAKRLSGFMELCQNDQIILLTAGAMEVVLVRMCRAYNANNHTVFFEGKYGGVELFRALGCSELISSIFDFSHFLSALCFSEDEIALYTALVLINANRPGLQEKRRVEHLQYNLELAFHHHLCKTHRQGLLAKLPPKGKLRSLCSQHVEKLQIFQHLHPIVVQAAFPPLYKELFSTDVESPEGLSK

Each compound was assayed against Nuclear receptor ROR-gamma (Mus musculus) (UniProt P51450) (assay: qHTS for inhibitors of ROR gamma transcriptional activity). Settings: Drosophila S2 Gal4-RORgamma UAS-luciferase reporter, 20 h; activity change, negative = inhibition: at 53.6 µM (top of the series).
Procedure, shortened: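 Schneider cells (Drosophila), stable Gal4 DBD–ROR gamma + UAS-luc; 1 hr cmpd preincubation; Cu2+ induction 700 uM final; 20 hr ambient; luminescence.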
With `Cc1ccc(C)c2c(SC(C)C(=O)NCc3ccco3)nc(-c3ccccc3)nc12` (centres undefined) the Potency was inconclusive: 0.112 µM [inhibitor, full curve, poor fit].
For `COc1ccc(C(=O)NN)cc1COc1ccc(Br)cc1`, the Potency was inconclusive: 15.8 µM [inhibitor, single point].
In the case of `NC(=S)Cc1ccc(Cl)cc1Cl`, the Potency is reported as inconclusive: 1.58 µM [inhibitor, partial curve, poor fit].
With `COCCN1CSC(=S)N(Cc2ccco2)C1` the Potency was inconclusive: 7.08 µM [inhibitor, partial curve].
With `CCOC(=O)c1[nH]cnc1C(=O)NC1CCCCC1` the Potency was inconclusive: 35.5 µM [inhibitor, single point].
For `CC1=C(C#N)c2nc(N)c(C#N)c(C)c2/C1=C\c1ccc(OCC(=O)O)c(Cl)c1`, the Potency was “inactive”.
In the case of `COC(=O)C1=C(NC(=O)c2ccc(C)c(C)c2)CCS1`, the Potency is reported as “inactive”.
With `Cc1cccc(Cl)c1NC(=O)N1CCCN(c2nc3ccc(Cl)cc3s2)CC1` the Potency was inconclusive: 10 µM [activator, partial curve].
With `COc1ccc(CC(=O)N2CCC(Nc3nc4ccccc4n3Cc3ccc(F)cc3)CC2)cc1` the Potency was inconclusive: 12.6 µM [activator, single point].
For `COc1ccc(NC(=S)Nc2ccc(C)c(Cl)c2)cc1OC`, the Potency was inconclusive: 22.4 µM [inhibitor, single point].
In the case of `C/C=C\C=C/C(=O)Nc1cccc(C2=NOC3(C2)C[C@@H](C(N)=O)N(C(=O)/C=C/C=C\C)C3)c1` (some centres undefined), the Potency is reported as “inactive”.
`Cc1cccc(Nc2nc(N)nc(CCl)n2)c1C` was tested, and the Potency was inconclusive: 35.5 µM [inhibitor, single point].
For `N#CC1=C(N)C(C#N)(C#N)C(c2ccncc2)C2CN(C(=O)OCc3ccccc3)CC=C12` (centres undefined), the Potency was inconclusive: 0.112 µM [activator, full curve, poor fit].
In the case of `COc1ccc(C2c3c(ncn(CCN4CCOCC4)c3=N)Oc3ccc4ccccc4c32)cc1` (centres undefined), the Potency is reported as “inactive”.
In the case of `Cc1cc(O)c(C(=O)/C=C/c2ccccc2Br)c(=O)o1`, the Potency is reported as inconclusive: 0.282 µM [inhibitor, single point].
For `Cc1cc(O)cc(O)c1C=NCc1ccco1`, the Potency was inconclusive: 22.4 µM [inhibitor, single point].
For `CCOC(=O)c1[nH]c(C)c(C(=O)OCc2ccccc2F)c1C`, the Potency was “inactive”.
`COC(=O)c1cc(OC)c(OC)cc1NC(=S)N1CCN(c2ccccc2)CC1` was tested, and the Potency was inconclusive: 2.82 µM [inhibitor, full curve, poor fit].
For `CC(C)Oc1ccc(C2NC(=O)c3ccccc3O2)cc1` (centres undefined), the Potency was “inactive”.
With `O=C(O)c1ccc(N/N=C/c2ccc3nccnc3c2)cc1` the Potency was active: 0.1 µM.
In the case of `O=C(Nc1nnc(COc2ccccc2)s1)c1ccco1`, the Potency is reported as inconclusive: 17.8 µM [activator, single point].
In the case of `C=CCn1c(SCC(C)=O)nnc1-c1cc(-c2ccccc2)sc1N`, the Potency is reported as inconclusive: 10 µM [inhibitor, partial curve, poor fit].
For `COCc1ccc(CN2CCC(n3nccc3NC(=O)CCOc3ccccc3)CC2)o1`, the Potency was active: 8.91 µM.
For `CN(C)c1ccc(-c2noc(-c3ccccc3O)n2)cc1`, the Potency was inconclusive: 5.01 µM [inhibitor, full curve].
In the case of `COC(=O)c1c(NC(=O)c2c(OC)cccc2OC)sc2c1C(C(=O)OC)CC2` (centres undefined), the Potency is reported as inconclusive: 14.1 µM [activator, single point].
In the case of `CSc1ccc(CN(C)CC(=O)NCCc2ccccc2)cc1`, the Potency is reported as inconclusive: 31.6 µM [activator, single point].
In the case of `CC(C)(C)C1CCc2c(C(=O)N/N=C/c3cccs3)csc2C1` (centres undefined), the Potency is reported as inconclusive: 11.2 µM [inhibitor, partial curve, poor fit].
In the case of `CCOc1cc(CN2CCN(c3cccc(C(F)(F)F)c3)CC2)ccc1OC`, the Potency is reported as “inactive”.
`CC(=O)OC(C(=O)N1CCN(c2ccc(F)cc2)CC1)c1ccccc1` (centres undefined) was tested, and the Potency was inconclusive: 0.158 µM [activator, full curve, poor fit].
In the case of `CC(C)C[C@H](NC(=O)c1nc[nH]c1C(=O)N1CCN(c2ccccc2)CC1)C(=O)OCc1ccccc1`, the Potency is reported as active: 5.01 µM.
With `CCSc1nc2sc3c(c2c(=O)n1-c1ccc(C)cc1)CCN(C)C3` the Potency was “inactive”.
For `CNC(=O)NC(=O)C(C)OC(=O)CCCSc1nc2ccccc2s1` (centres undefined), the Potency was active: 7.08 µM.
In the case of `Cc1c(NC(=S)NCc2ccc(F)cc2)cccc1[N+](=O)[O-]`, the Potency is reported as inconclusive: 20 µM [inhibitor, single point].
In the case of `Fc1ccc(/C=N/Nc2cc(N3CCOCC3)ncn2)cc1`, the Potency is reported as inconclusive: 5.62 µM [activator, single point].
In the case of `Oc1ccc(CN2CCN(c3ccccc3)CC2)c2cccnc12`, the Potency is reported as active: 1.26 µM.
With `Cc1ccc2c(NC(=S)NC(=O)c3ccccc3)cccc2n1` the Potency was active: 15.8 µM.
With `CC(=O)Nc1ccc(NC(=O)c2nc(-c3ccccc3)oc2C)cc1` the Potency was “inactive”.
For `COc1ccccc1CNC(=O)C1CCC1`, the Potency was “inactive”.
For `O=C(COCc1cc(-c2ccc3c(c2)OCO3)on1)N1CCN(c2ccc(F)cc2)CC1`, the Potency was “inactive”.
In the case of `CCc1c(-c2ccccc2)nc2nc(C)c(C)nn12`, the Potency is reported as “inactive”.
With `COc1cccc(Oc2coc3cc(OC(=O)N4CCOCC4)ccc3c2=O)c1` the Potency was inconclusive: 35.5 µM [inhibitor, single point].
For `COC(=O)N1CCC2(CCN(Cc3ccc(C#N)cc3)CC2)CC1`, the Potency was inconclusive: 35.5 µM [inhibitor, single point].
In the case of `Cc1nc(Cl)c(C(=O)NC(=O)Nc2cccc(C(F)(F)F)c2)c(C)c1[N+](=O)[O-]`, the Potency is reported as inconclusive: 5.62 µM [activator, single point].
For `O=C(CSc1nnc(-c2ccco2)n1Cc1ccccc1)NC(=O)NCc1ccco1`, the Potency was inconclusive: 2.24 µM [activator, partial curve].
For `CCCCCCC(=O)Cc1cc(OC)c(OC)cc1C=C(C(=O)OCC)C(=O)OCC`, the Potency was inconclusive: 35.5 µM [activator, single point].
In the case of `O=S(=O)(Nc1ccc(O)c2ccccc12)c1cccs1`, the Potency is reported as inconclusive: 35.5 µM [inhibitor, single point].
With `COc1ccccc1NC(=O)NCCCl` the Potency was inconclusive: 35.5 µM [inhibitor, single point].
`Oc1ccc2ccccc2c1C=NC1CCCCC1` was tested, and the Potency was inconclusive: 28.2 µM [inhibitor, single point].
With `CC(C)(C)c1ccc(O)c(/C=N\O)c1` the Potency was active: 11.2 µM.
`Cc1sc2ncnc(Sc3nnnn3-c3ccccc3)c2c1C` was tested, and the Potency was “inactive”.
With `Cc1ccc2cccc(OCCOCCOc3ccccc3Br)c2n1` the Potency was inconclusive: 35.5 µM [inhibitor, single point].
`COc1ccc(C(CNCC(=O)Nc2ccccc2F)N(C)C)cc1` (centres undefined) was tested, and the Potency was “inactive”.
`O=C(O)Cc1ccc2sc(-c3ccccc3)nc2c1` was tested, and the Potency was “inactive”.
`CC(=O)Nc1ccc(-c2cn3cc(C)ccc3n2)cc1` was tested, and the Potency was active: 7.08 µM.
For `COc1ccccc1NS(=O)(=O)c1cccc(C(=O)N/N=C/c2ccc(C)o2)c1`, the Potency was active: 11.2 µM.
With `NNC(=O)c1nc[nH]c1C(=O)Nc1ccccc1[N+](=O)[O-]` the Potency was inconclusive: 14.1 µM [inhibitor, partial curve, poor fit].
In the case of `Cc1cccc(-n2c(=O)[nH]c3c(C(N)=O)nc(-c4ccccc4Cl)nc32)c1`, the Potency is reported as inconclusive: 12.6 µM [inhibitor, partial curve, poor fit].
With `O=C(NNC(=O)c1cccs1)c1cccc(F)c1` the Potency was “inactive”.
`O=C(CCS(=O)(=O)c1ccccc1)Nc1ccc(-c2nc3ccccc3s2)cc1` was tested, and the Potency was inconclusive: 0.0056 µM [activator, full curve, poor fit].
For `COc1ccc2nc(NNC(=O)C3COc4ccccc4O3)sc2c1` (centres undefined), the Potency was active: 2.82 µM.
`CCOc1ccc(/C=C2\CCc3ccccc3C2=O)cc1` was tested, and the Potency was inconclusive: 3.16 µM [inhibitor, full curve, poor fit].
`C=Cc1ccc([C@H]2N[C@@H](C(=O)O)CC[C@@H]2C)cc1` was tested, and the activity change, negative = inhibition was inactive: 11.5% [at 10 µM].
In the case of `CCOC(=O)CSc1nnc(CNc2cccc(Cl)c2)n1-c1ccccc1`, the Potency is reported as inconclusive: 35.5 µM [inhibitor, single point].
With `CN(C)S(=O)(=O)c1cccc(NC(=S)Nc2cccc3cnccc23)c1` the Potency was inconclusive: 8.91 µM [inhibitor, partial curve, poor fit].
With `Cn1cccc1C(=O)NC(=O)COC(=O)CNC(=O)c1ccc(Cl)cc1Cl` the Potency was “inactive”.
In the case of `Cc1nc(NCC2CCCO2)c2nnn(Cc3ccccc3)c2n1` (centres undefined), the Potency is reported as inconclusive: 25.1 µM [activator, single point].
In the case of `COc1ccc(Cc2nc(-c3ccc(Cl)cc3)no2)cc1`, the Potency is reported as inconclusive: 12.6 µM [activator, partial curve, poor fit].
For `N#C/C(=C(/O)COc1ccc(Br)cc1)c1nnc2n1CCCCC2`, the Potency was “inactive”.
`CCOC(=O)OCC1OC(c2ccccc2)C=CC1Oc1cccc(N(C)C)c1` (centres undefined) was tested, and the activity change, negative = inhibition was inactive: 16.7% [at 10 µM].
With `Cc1cc(C(=O)Nc2nc3ccc(Cl)cc3s2)nn1C` the Potency was inconclusive: 11.2 µM [inhibitor, single point].
In the case of `CO[C@@H]1COC(=O)C/C=C\[C@@H](C)COC(=O)[C@H](COCc2ccccc2)NC(=O)C/C=C\[C@H]1C`, the activity change, negative = inhibition is reported as inactive: -1.6% [at 10 µM].
With `Nc1ccccc1C(=O)N=Nc1[nH]c(N)c2ccccc12` the Potency was inconclusive: 22.4 µM [inhibitor, single point].
In the case of `Cc1csc(NC(=O)c2ccc(COc3ccccc3)o2)n1`, the Potency is reported as “inactive”.
With `CCOc1ccc(-n2c(-c3ccco3)n[nH]c2=S)cc1` the Potency was active: 2.82 µM.
